Results on one molecule are retold here after patent publication US20170335004A1.

Results are given in words; binding and its absence hold for the method and conditions named. Some binding calls cover weakened binding; strength is not graded here. Where a sequence is shown, tags or fusion partners need not be part of it.

In the assay the target is T1, Recombinant human Fn14 R58A mutant (extracellular domain, His-tagged) (human) (UniProt Q9NP84).
T1 sequence: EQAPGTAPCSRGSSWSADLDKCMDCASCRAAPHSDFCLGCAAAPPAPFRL
As to the kind of experiment: ELISA on coated R58A mutant, antibody 0.5-0.008 µg/ml. A general note: In an ELISA, binding on a coated surface is turned into a signal by an enzyme label.

B1: human antibody 3.6 (antibody, V domains shown)
VH: QVQLVQSGGGLVKPGGSLRLSCAASGFTFTSYAMSWVRQAPGKGLEWVSAISGSGGSTYYADSVKGRFTISRDNPKNTLYLQMNSLRAEDTAVYYCARVRANYYYGMDVWGQGTLVTVSS
VL: LTQSPGTLSLSPGERATLSCRASQSVSRLTWYQQKPGQAPRLLIYGTSSRATGIPNRFSGSGSGTDFTLTITRLEPEDFAVYYCQQFRNSLLTFGGGTKVEITR
Consider B1, for which the binding entry is reported as “binds”.
